Experimental data reported in patent US11975040B2, “Plexin binding regulator” (The University of Tokyo, priority 2016, dated 2024).
At least one peptide structure holds a part that was inferred or is arguable (an end, a ring closure or a residue). Positions of bridges follow the written chain, without caps; N, C: chain ends. Non-standard residues stand in square brackets, D forms with d. Residues, ends and D or L forms follow the SMILES beside them.

What was measured:
[1] = test system: exogenously Plexin B1-expressing cells HEK293; test: inhibition test of Semaphorin 4D-dependent growth cone collapse; format: cell-based; conditions: addition of P6
[2] = molecular target: T1, mouse Plexin B1 and Semaphorin 4D (Mus musculus, UniProt Q8CJH3); test: in vitro pulldown assay of mouse Plexin B1 / Semaphorin 4D interaction (AP activity); format: biochemical; conditions: species not given, follows the mouse Plexin B1 sentence
T1 sequence (Q8CJH3 20-535 limits assumed): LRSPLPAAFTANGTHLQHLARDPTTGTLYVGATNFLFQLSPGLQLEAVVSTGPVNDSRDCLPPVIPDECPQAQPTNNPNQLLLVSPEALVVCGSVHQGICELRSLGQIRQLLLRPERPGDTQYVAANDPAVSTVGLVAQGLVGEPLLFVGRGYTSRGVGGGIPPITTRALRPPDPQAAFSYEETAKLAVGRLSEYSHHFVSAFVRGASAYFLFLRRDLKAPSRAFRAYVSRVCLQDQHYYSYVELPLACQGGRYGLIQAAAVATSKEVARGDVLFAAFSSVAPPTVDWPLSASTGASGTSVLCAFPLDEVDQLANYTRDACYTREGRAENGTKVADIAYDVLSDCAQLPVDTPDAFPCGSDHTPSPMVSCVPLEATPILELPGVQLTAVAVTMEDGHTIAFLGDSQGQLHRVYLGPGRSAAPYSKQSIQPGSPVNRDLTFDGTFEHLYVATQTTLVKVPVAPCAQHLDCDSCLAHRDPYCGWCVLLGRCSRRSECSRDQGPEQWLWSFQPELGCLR
Procedure: The effect of the cyclic peptides shown in FIG. 2c on protein-protein interaction (PPI) of Plexin B1 and Semaphorin 4D was studied by in vitro pulldown assay (FIG. 3). • 1. Plexin B1 or Plexin A2 was immobilized on Sepharose beads. • 2. A cyclic peptide that bound to Plexin B1, a negative control peptide, or dimethylsulfoxide (DMSO) was added to Plexin-B1-immobilized beads. • 3. An alkali phosphatase (AP)-fused protein of Semaphorin 4D or Semaphorin 6A was added. • 4. After washing of the resulting beads, an increase in absorbance of the sample was measured at 405 nm to determined AP activity.
High AP activity relates to high interaction (5) between Semaphorin and Plexin and low AP activity relates to […] interaction (6) between Semaphorin and Plexin.

[3] = molecular target: T2, human Plexin B1 and Semaphorin 4D (Homo sapiens, UniProt O43157); test: in vitro pulldown assay of Plexin B1 / Semaphorin 4D interaction (AP activity); format: biochemical; conditions: compared with cyclic peptide P6
T2 sequence (O43157 20-535 limits assumed): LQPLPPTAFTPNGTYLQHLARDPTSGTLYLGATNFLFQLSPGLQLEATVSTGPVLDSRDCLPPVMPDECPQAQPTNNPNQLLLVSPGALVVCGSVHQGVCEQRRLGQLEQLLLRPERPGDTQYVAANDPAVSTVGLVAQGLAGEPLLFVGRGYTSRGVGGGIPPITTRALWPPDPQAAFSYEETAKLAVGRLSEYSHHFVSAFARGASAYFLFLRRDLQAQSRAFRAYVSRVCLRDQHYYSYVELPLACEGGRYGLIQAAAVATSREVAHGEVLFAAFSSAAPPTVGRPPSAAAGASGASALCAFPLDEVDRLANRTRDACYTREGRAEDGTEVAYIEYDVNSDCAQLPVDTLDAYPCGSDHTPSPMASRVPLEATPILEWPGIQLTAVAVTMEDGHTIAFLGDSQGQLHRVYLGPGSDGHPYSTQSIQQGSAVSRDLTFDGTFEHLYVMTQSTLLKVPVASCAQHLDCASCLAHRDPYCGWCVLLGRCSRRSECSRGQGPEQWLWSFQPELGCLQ

SMILES	inhibition of Semaphorin 4D-dependent growth cone collapse [1]	inhibiting activity compared with cyclic peptide P6 [2]	interaction inhibiting activity between human Plexin B1 and Semaphorin 4D [3]
CC[C@H](C)[C@@H]1NC(=O)[C@H](CCC(N)=O)NC(=O)CNC(=O)[C@H]([C@@H](C)O)NC(=O)[C@H](Cc2c[nH]c3ccccc23)NC(=O)[C@H](CCCNC(=N)N)NC(=O)[C@H](C)NC(=O)[C@H](C(C)C)NC(=O)[C@H](CCCNC(=N)N)NC(=O)[C@@H]2CCCN2C(=O)[C@H](CCCNC(=N)N)NC(=O)[C@@H](Cc2c[nH]c3ccccc23)NC(=O)CSC[C@@H](C(=O)N[C@@H](CO)C(N)=O)NC(=O)[C@H](Cc2ccc(O)cc2)NC(=O)[C@H]([C@@H](C)CC)NC1=O [P6, wRPRVARWTGQITYC] ({CH2CO}-[dW]RPRVARWTGQIIYCS-NH2; thioether N-15 (inferred); N-terminus and C-terminus assumed)	inhibition of growth cone collapse	–	–
CC[C@H](C)[C@@H]1NC(=O)[C@H](Cc2ccc(O)cc2)NC(=O)CNC(=O)[C@H](CC(C)C)NC(=O)[C@@H](Cc2c[nH]c3ccccc23)NC(=O)CSC[C@@H](C(=O)NCC(N)=O)NC(=O)[C@H](CCCCN)NC(=O)[C@H](C(C)C)NC(=O)[C@H](C(C)C)NC(=O)[C@H]([C@@H](C)O)NC(=O)CNC(=O)[C@H]([C@@H](C)O)NC(=O)[C@H](Cc2c[nH]c3ccccc23)NC(=O)[C@H](CCCNC(=N)N)NC(=O)[C@H](C)NC1=O [mp6-3, wLGYIARWTGTVVKC] ({CH2CO}-[dW]LGYIARWTGTVVKCG-NH2; thioether N-15 (inferred); N-terminus and C-terminus assumed)	–	stronger inhibiting activity than the cyclic peptide P6	–
CC[C@H](C)[C@@H]1NC(=O)[C@H](Cc2ccc(O)cc2)NC(=O)[C@@H]2CCCN2C(=O)[C@H](CCCNC(=N)N)NC(=O)[C@@H](Cc2c[nH]c3ccccc23)NC(=O)CSC[C@@H](C(=O)NCC(N)=O)NC(=O)[C@H](C(C)C)NC(=O)[C@H]([C@@H](C)CC)NC(=O)[C@H](CC(C)C)NC(=O)[C@H](CCCNC(=N)N)NC(=O)CNC(=O)[C@H]([C@@H](C)O)NC(=O)[C@H](Cc2c[nH]c3ccccc23)NC(=O)[C@H](CCCNC(=N)N)NC(=O)[C@H](CCC(=O)O)NC1=O [mp6-9, wRPYIERWTGRLTVC] ({CH2CO}-[dW]RPYIERWTGRLIVCG-NH2; thioether N-15)	–	stronger inhibiting activity than the cyclic peptide P6	equivalent to that of the cyclic peptide P6
